Consider 34 targets from the supplement of paper PMC10849652.

The chains behind the UniProt entries cited, without tags or fusion partners. Where a name states a change or a piece, a line headed by the entry shows the natural chain unless it says otherwise.
UniProt Q86X53: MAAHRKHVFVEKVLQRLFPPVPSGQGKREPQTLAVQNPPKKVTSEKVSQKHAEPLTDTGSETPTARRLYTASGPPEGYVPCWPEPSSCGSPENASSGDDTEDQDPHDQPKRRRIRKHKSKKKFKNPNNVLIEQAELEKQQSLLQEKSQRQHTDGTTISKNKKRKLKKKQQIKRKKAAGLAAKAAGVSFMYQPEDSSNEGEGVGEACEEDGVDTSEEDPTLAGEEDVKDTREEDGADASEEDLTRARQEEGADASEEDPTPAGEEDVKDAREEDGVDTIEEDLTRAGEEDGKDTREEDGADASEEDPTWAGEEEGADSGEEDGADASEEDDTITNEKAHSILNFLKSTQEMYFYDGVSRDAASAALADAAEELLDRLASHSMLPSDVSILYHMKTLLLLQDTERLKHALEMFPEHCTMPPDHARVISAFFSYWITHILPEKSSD
UniProt O95718: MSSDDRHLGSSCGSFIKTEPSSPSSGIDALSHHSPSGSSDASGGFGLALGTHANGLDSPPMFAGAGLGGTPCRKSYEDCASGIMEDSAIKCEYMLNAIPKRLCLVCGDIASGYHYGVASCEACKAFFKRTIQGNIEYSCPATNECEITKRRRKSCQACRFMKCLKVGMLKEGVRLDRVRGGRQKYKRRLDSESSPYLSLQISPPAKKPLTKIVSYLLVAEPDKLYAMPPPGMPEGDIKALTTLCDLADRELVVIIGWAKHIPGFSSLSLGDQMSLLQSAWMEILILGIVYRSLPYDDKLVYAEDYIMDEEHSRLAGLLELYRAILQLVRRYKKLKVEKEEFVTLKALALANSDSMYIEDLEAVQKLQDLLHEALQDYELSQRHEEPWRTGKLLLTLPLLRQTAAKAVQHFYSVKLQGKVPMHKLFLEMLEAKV
UniProt Q8IWE2: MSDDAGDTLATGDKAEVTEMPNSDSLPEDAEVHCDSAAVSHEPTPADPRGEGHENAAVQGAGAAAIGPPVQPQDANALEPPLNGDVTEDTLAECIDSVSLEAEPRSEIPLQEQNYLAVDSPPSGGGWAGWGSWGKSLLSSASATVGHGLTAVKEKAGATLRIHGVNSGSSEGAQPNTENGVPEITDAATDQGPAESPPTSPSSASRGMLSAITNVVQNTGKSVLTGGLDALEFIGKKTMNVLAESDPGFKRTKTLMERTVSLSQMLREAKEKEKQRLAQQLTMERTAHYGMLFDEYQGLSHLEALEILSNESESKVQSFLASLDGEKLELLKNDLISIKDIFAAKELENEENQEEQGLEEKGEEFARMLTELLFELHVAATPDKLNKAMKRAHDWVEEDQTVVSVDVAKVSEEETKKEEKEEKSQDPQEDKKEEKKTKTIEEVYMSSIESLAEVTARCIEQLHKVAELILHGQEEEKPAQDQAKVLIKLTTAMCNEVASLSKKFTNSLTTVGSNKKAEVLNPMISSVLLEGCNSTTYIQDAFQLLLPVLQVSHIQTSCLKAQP
UniProt Q8N612: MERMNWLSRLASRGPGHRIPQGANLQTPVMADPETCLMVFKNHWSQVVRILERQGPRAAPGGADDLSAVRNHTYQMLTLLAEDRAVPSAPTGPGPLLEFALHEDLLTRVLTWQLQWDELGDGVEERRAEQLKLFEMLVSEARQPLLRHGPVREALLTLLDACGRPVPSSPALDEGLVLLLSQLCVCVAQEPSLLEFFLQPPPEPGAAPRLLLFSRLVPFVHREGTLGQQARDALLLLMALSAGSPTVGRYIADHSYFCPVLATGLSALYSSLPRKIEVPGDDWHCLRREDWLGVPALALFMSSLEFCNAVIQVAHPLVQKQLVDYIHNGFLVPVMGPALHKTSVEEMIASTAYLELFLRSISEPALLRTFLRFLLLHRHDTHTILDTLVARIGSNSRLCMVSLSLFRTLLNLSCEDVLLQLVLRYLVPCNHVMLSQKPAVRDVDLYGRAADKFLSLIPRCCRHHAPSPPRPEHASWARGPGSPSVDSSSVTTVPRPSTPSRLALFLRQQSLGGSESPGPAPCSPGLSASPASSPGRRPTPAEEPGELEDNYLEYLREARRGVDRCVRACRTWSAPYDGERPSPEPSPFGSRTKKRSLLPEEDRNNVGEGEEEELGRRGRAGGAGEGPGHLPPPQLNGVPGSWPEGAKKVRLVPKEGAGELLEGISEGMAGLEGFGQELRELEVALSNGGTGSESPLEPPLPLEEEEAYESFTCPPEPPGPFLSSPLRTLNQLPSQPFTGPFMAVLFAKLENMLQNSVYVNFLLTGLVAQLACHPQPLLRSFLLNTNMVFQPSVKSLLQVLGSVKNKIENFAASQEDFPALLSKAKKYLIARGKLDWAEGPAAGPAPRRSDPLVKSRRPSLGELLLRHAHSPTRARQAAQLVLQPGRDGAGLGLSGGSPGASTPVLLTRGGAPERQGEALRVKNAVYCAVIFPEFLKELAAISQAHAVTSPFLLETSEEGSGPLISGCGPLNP
UniProt Q6P1L5: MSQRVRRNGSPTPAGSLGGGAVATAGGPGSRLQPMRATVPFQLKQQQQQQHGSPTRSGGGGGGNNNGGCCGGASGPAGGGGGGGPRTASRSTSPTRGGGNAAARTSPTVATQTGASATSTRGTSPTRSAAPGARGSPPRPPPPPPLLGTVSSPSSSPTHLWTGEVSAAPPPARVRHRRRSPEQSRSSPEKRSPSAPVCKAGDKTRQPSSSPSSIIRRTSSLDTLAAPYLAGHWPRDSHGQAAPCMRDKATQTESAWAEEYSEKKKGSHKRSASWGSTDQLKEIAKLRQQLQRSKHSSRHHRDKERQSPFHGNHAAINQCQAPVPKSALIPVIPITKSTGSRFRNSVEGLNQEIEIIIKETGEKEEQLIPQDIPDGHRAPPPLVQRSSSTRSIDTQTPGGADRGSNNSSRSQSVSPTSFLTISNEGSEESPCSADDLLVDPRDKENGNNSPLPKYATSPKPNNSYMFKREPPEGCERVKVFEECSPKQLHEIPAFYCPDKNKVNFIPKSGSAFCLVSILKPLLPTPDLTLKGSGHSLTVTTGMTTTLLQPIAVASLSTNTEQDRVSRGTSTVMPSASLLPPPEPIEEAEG
UniProt Q5VUB5: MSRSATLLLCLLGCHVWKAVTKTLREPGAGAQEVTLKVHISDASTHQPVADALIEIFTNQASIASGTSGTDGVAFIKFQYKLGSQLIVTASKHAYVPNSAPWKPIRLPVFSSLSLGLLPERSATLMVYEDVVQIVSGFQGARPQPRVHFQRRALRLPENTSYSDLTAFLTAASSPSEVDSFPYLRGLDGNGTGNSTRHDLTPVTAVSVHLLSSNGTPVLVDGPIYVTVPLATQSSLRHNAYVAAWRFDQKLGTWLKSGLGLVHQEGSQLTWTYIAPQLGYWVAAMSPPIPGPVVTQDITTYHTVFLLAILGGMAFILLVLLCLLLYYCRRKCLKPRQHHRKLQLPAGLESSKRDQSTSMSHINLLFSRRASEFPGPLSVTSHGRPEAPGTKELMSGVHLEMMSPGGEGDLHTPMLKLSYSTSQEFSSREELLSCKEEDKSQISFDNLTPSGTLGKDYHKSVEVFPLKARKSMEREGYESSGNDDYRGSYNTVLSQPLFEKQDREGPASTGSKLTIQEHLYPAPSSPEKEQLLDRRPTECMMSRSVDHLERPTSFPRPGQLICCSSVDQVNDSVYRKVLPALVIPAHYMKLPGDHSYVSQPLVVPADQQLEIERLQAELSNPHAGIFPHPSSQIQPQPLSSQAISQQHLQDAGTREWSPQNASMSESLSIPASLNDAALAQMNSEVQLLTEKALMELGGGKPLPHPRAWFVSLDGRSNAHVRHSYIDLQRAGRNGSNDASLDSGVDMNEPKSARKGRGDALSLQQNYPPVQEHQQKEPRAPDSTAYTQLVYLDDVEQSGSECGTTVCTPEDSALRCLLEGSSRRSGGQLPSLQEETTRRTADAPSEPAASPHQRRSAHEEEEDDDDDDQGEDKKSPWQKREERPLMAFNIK
UniProt Q9BYI3: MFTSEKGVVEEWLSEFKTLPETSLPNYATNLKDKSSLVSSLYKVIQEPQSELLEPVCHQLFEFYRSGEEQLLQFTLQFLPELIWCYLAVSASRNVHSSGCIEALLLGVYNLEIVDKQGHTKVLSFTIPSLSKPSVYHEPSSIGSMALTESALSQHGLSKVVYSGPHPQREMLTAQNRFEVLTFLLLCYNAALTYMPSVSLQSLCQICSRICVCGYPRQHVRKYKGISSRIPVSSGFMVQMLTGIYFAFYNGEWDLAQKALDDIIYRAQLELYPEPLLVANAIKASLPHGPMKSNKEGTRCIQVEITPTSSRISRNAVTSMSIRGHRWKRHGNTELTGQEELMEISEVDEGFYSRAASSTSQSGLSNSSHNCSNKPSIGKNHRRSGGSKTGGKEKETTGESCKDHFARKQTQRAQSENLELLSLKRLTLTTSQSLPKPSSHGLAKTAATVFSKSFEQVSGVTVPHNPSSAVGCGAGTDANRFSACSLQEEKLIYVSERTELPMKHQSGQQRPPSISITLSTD
UniProt Q9BQ89: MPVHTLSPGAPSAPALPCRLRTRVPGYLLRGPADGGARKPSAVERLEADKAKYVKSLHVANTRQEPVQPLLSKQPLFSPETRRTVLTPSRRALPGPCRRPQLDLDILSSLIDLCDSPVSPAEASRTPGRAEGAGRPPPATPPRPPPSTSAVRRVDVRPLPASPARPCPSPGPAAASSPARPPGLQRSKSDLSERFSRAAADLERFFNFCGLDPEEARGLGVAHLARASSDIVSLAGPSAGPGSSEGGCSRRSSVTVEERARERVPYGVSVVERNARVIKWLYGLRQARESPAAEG
UniProt Q6NZ36: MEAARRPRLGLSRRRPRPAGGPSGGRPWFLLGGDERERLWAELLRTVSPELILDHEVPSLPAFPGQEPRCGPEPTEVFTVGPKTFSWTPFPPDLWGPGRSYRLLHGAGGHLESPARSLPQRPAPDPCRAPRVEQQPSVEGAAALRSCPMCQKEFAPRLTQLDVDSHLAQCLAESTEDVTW
UniProt Q6P179: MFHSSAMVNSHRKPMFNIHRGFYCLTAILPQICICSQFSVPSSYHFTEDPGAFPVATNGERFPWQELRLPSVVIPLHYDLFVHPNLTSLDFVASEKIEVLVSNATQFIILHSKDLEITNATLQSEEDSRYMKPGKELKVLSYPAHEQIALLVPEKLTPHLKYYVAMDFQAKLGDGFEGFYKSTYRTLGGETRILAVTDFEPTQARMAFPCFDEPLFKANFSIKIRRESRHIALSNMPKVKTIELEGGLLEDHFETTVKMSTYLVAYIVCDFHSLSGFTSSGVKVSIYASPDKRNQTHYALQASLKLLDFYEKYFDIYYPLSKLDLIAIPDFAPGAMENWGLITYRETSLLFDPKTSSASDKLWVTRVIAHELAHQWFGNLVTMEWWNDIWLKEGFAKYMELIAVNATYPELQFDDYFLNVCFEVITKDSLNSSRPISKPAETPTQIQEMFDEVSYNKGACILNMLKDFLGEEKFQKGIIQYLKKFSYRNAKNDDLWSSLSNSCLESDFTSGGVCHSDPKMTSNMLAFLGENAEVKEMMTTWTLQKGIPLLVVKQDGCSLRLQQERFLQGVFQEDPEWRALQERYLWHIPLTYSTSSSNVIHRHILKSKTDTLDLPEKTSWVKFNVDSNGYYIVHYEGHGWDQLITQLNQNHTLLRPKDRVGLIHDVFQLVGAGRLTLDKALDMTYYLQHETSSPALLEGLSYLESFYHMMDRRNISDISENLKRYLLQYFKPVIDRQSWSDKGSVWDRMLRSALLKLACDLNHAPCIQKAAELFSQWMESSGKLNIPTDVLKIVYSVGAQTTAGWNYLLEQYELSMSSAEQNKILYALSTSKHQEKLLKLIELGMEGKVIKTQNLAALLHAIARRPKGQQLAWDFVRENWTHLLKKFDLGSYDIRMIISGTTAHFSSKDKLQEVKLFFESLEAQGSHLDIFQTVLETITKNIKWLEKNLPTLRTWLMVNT
UniProt P00740, whole entry, looked up: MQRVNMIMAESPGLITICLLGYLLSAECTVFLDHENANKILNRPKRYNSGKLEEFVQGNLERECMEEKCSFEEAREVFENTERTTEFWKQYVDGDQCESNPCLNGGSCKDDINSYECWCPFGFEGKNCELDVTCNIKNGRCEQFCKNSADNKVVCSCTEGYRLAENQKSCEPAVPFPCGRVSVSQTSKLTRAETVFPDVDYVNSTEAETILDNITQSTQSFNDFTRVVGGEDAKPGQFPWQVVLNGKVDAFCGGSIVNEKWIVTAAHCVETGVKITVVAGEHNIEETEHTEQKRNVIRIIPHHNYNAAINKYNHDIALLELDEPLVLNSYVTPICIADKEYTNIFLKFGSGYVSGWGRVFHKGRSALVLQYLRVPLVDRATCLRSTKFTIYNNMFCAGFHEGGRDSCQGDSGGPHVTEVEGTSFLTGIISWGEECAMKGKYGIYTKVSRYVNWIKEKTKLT
UniProt Q7Z309: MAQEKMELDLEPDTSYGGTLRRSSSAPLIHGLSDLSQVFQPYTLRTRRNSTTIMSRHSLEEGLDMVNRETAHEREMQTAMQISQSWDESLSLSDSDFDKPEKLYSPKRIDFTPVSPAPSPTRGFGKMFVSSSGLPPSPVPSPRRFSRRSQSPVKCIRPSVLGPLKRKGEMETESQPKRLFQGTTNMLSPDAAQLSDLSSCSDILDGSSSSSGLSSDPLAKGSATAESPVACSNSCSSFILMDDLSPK

This is one part of the list.

Compound in one assay: CC1=NC(=CC=C1)C2=C(N=C(N2)C(C)(C)C)C3=CC4=NC=CN=C4C=C3
The experiment in a line: log2 fold change, soluble protein after heating vs DMSO (PISA); higher = thermal stabilisation; K562 cells, 10 uM, 30 min; active = over 0.2 and 3.5 SD of the protein, either way, in both replicates (recomputed). In a few lines:
(§1)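 K562 cells (2×10^6 cells/mL) were treated with 10 μM compound for 30 min, and aliquots were heated for 3 min over 48°C-58°C. Pooled aliquots were extracted in PBS with 0.5% NP-40 at 4°C, and the supernatant after 21,000xg for 90 min was measured by TMTpro 16plex LC-MS/MS with channel sums equalised. Reported thermal stability, relative to control samples and from duplicates, is a log2 fold change.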
Regarding ERICH1 (UniProt Q86X53), the log2 fold change is inactive: -0.569.
Same read-out and setting: next, FAM174A (UniProt Q8TBP5): inactive: -0.275; FADS1 (UniProt F5GYH4): inactive: -0.254; ESRRB isoform 1 (UniProt O95718): inactive: 0.197.
The same measure, in the same setting: next, FAM114A1 (UniProt Q8IWE2): inactive: -0.014; FAM160A2 isoform 2 (UniProt Q8N612): inactive: 0.016.
The same measure, in the same setting: next, FAM117B (UniProt Q6P1L5): inactive: -0.126.
Consider FAM171A1 (UniProt Q5VUB5), for which the log2 fold change was inactive: -0.159.

Compound in the next assay: CCCCN(Cc1ccc(C(=O)NO)cc1)C(=O)Nc1ccccc1 [Nexturastat A]
The assay is described as above. In a few lines: as §1
Take EPB41L5 (UniProt Q9HCM4): the log2 fold change was inactive: 0.218.
Still for that read-out and setting: next, FAM126A (UniProt Q9BYI3): inactive: -0.081; FAM107B isoform 2 (UniProt Q9H098): inactive: -0.001; EPHX2 (UniProt E5RI53): inactive: 0.029.
On the same count and under the same terms, next, FAM114A1 (UniProt Q8IWE2): inactive: 0.044; FAM160A2 isoform 2 (UniProt Q8N612): inactive: -0.066.
Still for that read-out and setting: next, FAM110A (UniProt Q9BQ89): inactive: 0.118; FAAP20 isoform 2 (UniProt Q6NZ36): inactive: 0.065; EPS8L1 (UniProt Q8TE68): inactive: 0.006.
With EWSR1 (UniProt H7BY36), the log2 fold change is inactive: -0.321.
Same read-out and setting: next, ERAP2 (UniProt Q6P179): inactive: -0.256; FAM117B (UniProt Q6P1L5): inactive: 0.394.
The same measure, in the same setting: next, FAM171A1 (UniProt Q5VUB5): inactive: -0.222.

Compound in another assay: CCCS(=O)(=O)Nc1ccc(F)c(C(=O)c2c[nH]c3ncc(-c4ccc(Cl)cc4)cc23)c1F [vemurafenib]
Described as above. In a few lines: as §1
Regarding FAM174A (UniProt Q8TBP5), the log2 fold change is inactive: -0.177.
Same read-out and setting: next, FADS1 (UniProt F5GYH4): inactive: -0.052; F9 (UniProt P00740): inactive: -0.093.
Same read-out and setting: next, ESRRB isoform 1 (UniProt O95718): inactive: 0.229; FAM107B isoform 2 (UniProt Q9H098): inactive: 0.035.
Still for that read-out and setting: next, FAM160A2 isoform 2 (UniProt Q8N612): inactive: -0.164.
With F13B (UniProt P05160), the log2 fold change was inactive: 0.059.
For EVI2B isoform 2 (UniProt P34910), the log2 fold change is inactive: 0.034.
Same read-out and setting: next, EWSR1 (UniProt H7BY36): inactive: 0.036.
The same measure, in the same setting: next, F2R (UniProt P25116): inactive: -0.042.
Still for that read-out and setting: next, EYA3 (UniProt Q99504): inactive: 0.19; FAM117B (UniProt Q6P1L5): inactive: 0.043; FAM171A1 (UniProt Q5VUB5): inactive: 0.045.

Compound in a further assay: CCCS(=O)(=O)Nc1ccc(F)c(C(=O)c2c[nH]c3ncc(Cl)cc23)c1F
The assay is described as above. In a few lines: as §1
Take ERICH1 (UniProt Q86X53): the log2 fold change is inactive: -0.189.
On the same count and under the same terms, next, FAM126B (UniProt Q8IXS8): inactive: -0.028.
F9 (UniProt P00740): the log2 fold change was inactive: -0.092.
Still for that read-out and setting: next, EWSR1 (UniProt H7BY36): inactive: -0.167.
The same measure, in the same setting: next, F2R (UniProt P25116): inactive: 0.199.
On the same count and under the same terms, next, ERAP2 (UniProt Q6P179): inactive: -0.119; FAM171A1 (UniProt Q5VUB5): inactive: -0.002.

Compound in a further assay: CCCc1cc(C)[nH]c(=O)c1CNC(=O)c1cc(-c2ccnc(N3CCN(C)CC3)c2)cc2c1cnn2C(C)C
The description is as above. In a few lines:
as §1
As for FAM160B2 (UniProt Q86V87), the log2 fold change was inactive: 0.014.
On the same count and under the same terms, next, FAM126A (UniProt Q9BYI3): inactive: 0.217.
As for EVA1B (UniProt Q9NVM1), the log2 fold change is inactive: -0.004.
On the same count and under the same terms, next, F13A1 (UniProt P00488): inactive: -0.082; ERMARD (UniProt Q5T6L9): inactive: -0.001; FAM122B isoform 2 (UniProt Q7Z309): inactive: 0.035.
Same read-out and setting: next, FAM114A1 (UniProt Q8IWE2): inactive: -0.024; FAM160A2 isoform 2 (UniProt Q8N612): inactive: -0.172.
Regarding FAAP20 isoform 2 (UniProt Q6NZ36), the log2 fold change is inactive: -0.021.
Still for that read-out and setting: next, EPC1 (UniProt Q9H2F5): inactive: 0.283; EWSR1 (UniProt H7BY36): inactive: -0.104; EYA3 (UniProt Q99504): inactive: 0.048.
Turning to ERAP2 (UniProt Q6P179), the log2 fold change is inactive: -0.021.

Compound in the next assay: CCN(CC)Cc1ccc2cc(COC(=O)Nc3ccc(C(=O)NO)cc3)ccc2c1 [givinostat]
The assay is described as above. A digest of the protocol: as §1
EPB41L5 (UniProt Q9HCM4): the log2 fold change was inactive: 0.018.
Regarding FAM126A (UniProt Q9BYI3), the log2 fold change is inactive: -0.226.
As to FADS2 (UniProt O95864), the log2 fold change was inactive: -0.177.
For the target ESRRB isoform 1 (UniProt O95718), the log2 fold change is inactive: -0.206.
FAM178B (UniProt Q8IXR5): the log2 fold change is inactive: 0.125.
Still for that read-out and setting: next, FAM114A1 (UniProt Q8IWE2): inactive: 0.045; FAM171A2 (UniProt A8MVW0): inactive: -0.024.
Same read-out and setting: next, FAM120B (UniProt Q96EK7): inactive: 0.108; EWSR1 (UniProt H7BY36): inactive: 0.204.
Same read-out and setting: next, ERAP2 (UniProt Q6P179): inactive: -0.008; FAM117B (UniProt Q6P1L5): inactive: 0.212; FAM171A1 (UniProt Q5VUB5): inactive: -0.035.

Compound in a further assay: CCN(CCCOc1ccc2c(Nc3cc(CC(=O)Nc4cccc(F)c4)[nH]n3)ncnc2c1)CCOP(=O)(O)O [barasertib]
The description is as above. A digest of the protocol: as §1
In the case of FADS1 (UniProt F5GYH4), the log2 fold change was inactive: 0.024.
Same read-out and setting: next, F9 (UniProt P00740): inactive: -0.041.
On the same count and under the same terms, next, ESRRB isoform 1 (UniProt O95718): inactive: -0.004; F13A1 (UniProt P00488): inactive: -0.23; EPN1 isoform 3 (UniProt Q9Y6I3): inactive: -0.15.
Regarding EPHX2 (UniProt E5RI53), the log2 fold change is inactive: 0.094.
On the same count and under the same terms, next, FAM160A2 isoform 2 (UniProt Q8N612): inactive: 0.109; EPS8L1 (UniProt Q8TE68): inactive: 0.077.
Consider EWSR1 (UniProt H7BY36), for which the log2 fold change is inactive: -0.097.
